Measurements from PubChem BioAssay AID588590 (National Center for Advancing Translational Sciences (NCATS), 2011).
Out of some 390,000 compounds screened, about 4,000 (1%) were called active. This list was built around the results that the source calls inconclusive (neither active nor inactive); the mix of calls is not that of the screen. Calls come from the whole dose curve; as a rule, active = well fitted inhibition curve with a large enough effect; inconclusive = small, poorly fitted or top-dose-only effect, or another doubt; inactive = no such curve, though single readings can be large or run the other way. A potency beside an inconclusive call is a rough fit, not a confirmed value.

By UniProt entry, the sequences of proteins in these tests, tags left out. Where a name states a change or a piece, a line headed by the entry shows the natural chain unless it says otherwise.
UniProt Q9UNA4: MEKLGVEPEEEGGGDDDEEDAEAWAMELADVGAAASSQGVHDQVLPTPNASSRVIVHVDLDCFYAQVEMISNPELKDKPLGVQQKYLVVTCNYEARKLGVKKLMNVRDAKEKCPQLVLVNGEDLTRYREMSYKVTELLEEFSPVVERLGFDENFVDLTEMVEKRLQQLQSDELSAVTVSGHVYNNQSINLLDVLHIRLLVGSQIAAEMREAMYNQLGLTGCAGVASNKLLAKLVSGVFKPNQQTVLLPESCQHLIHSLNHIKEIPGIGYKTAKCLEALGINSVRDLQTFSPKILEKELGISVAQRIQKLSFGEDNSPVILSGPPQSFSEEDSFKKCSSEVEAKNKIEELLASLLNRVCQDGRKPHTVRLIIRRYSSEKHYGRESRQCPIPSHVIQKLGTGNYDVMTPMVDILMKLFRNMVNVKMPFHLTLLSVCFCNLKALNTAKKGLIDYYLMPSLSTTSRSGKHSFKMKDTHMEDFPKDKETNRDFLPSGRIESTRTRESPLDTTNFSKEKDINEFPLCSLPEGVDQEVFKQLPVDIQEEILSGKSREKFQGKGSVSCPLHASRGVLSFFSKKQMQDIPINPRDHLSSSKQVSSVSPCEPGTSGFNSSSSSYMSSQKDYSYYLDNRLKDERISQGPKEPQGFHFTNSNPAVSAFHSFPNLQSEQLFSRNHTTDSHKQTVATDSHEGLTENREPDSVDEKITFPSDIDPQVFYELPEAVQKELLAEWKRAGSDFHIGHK

biological target: DNA polymerase iota (Homo sapiens) (UniProt Q9UNA4); test: qHTS for Inhibitors of Polymerase Iota; settings: Pol iota fluorescent replication assay, 10 min; series mostly up to 115 µM
Method in brief: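 Pol iota at 10 nM preincubated 15 min with compounds at room temperature; reaction started with fluorescent substrate, 50 nM final. Fluorescence read kinetically at 0 and 10 min; buffer-only wells as negative control.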
Potency is the fitted concentration of half-maximal effect.

| Compound | Potency |
| --- | --- |
| CCOC(=O)CSc1ccc2nnc(-c3ccccc3)n2n1 | inactive |
| O=C(CCc1ccc(O)c(O)c1)N/N=C/c1cc2c(cc1[N+](=O)[O-])OCO2 | active: 31.6 µM |
| COc1ccc(CCN2CC(C(=O)OCC(=O)N(C)CC(=O)Nc3ccccc3Cl)CC2=O)cc1OC (stereo not drawn) | inconclusive: 79.4 µM [inhibitor, partial curve, poor fit] |
| O=S(=O)(CCSc1nc2ccccc2s1)c1nc2ccccc2s1 | inconclusive: 25.1 µM [inhibitor, single point] |
| CCn1cc(C(=O)NCc2ccco2)c(=O)c2cc(F)c(N3CCN(C(=O)c4ccco4)CC3)cc21 | inconclusive: 28.2 µM [inhibitor, partial curve, poor fit] |
| CCC(=O)N1CCC2(CC1)Oc1ccc(F)cc1C(=O)C21CC(c2ccccc2)=NO1 (stereo not drawn) | inconclusive: 22.4 µM [inhibitor, single point] |
| O=C(NN1C(=O)/C(=C/c2ccc(O)cc2)SC1=S)c1cccc(O)c1 | inconclusive: 25.1 µM [inhibitor, partial curve, poor fit] |
| N#Cc1c(N)[nH]c(=S)c(C#N)c1-c1ccccc1 | inconclusive: 15.8 µM [inhibitor, single point] |
| CCN(CC)CCNC(=S)Nc1ccc2nc(N3CCCC3)cc(C)c2c1 | inconclusive: 89.1 µM [inhibitor, partial curve, poor fit] |
| COc1cccc(NC(=O)CSc2ccc(-c3ccco3)nn2)c1 | inconclusive: 25.1 µM [inhibitor, single point] |
| CN(C)c1ccc(C(=S)N2CCN(S(=O)(=O)c3ccccc3)CC2)cc1 | inconclusive: 70.8 µM [inhibitor, partial curve] |
| Cc1ccc(CNC(=O)C2c3ccccc3C(=O)N3CCc4ccccc4C23)o1 (stereo not drawn) | inconclusive: 20 µM [inhibitor, single point] |
| COc1cc(/C=N/Nc2ncnc3sc4c(c23)CCC4)ccc1O | inconclusive: 15.8 µM [inhibitor, full curve, poor fit] |
| O=C(O)c1ccccc1C(=O)OCc1c(-c2ccccc2)ncc2ccccc12 | inconclusive: 35.5 µM [inhibitor, single point] |
| CCCOc1ccc(N2C(=O)CC(N3CCOCC3)C2=O)cc1 (stereo not drawn) | inconclusive: 70.8 µM [inhibitor, single point] |
| CN1CCN(CCCNC(=O)Cn2c(-c3cccs3)cc3cc(Cl)ccc32)CC1 | inactive |
| Cc1ccccc1Nc1cc2ccccc2c(=O)[nH]1 | inconclusive: 35.5 µM [inhibitor, partial curve, poor fit] |
| Cc1c(C(=O)N2CCN(S(=O)(=O)c3ccccc3F)CC2)oc2c(Cl)cccc12 | inconclusive: 63.1 µM [inhibitor, partial curve, poor fit] |
| N#Cc1c(-c2ccc(F)cc2)cc(-c2ccccc2)nc1SCC(=O)NCC(=O)O | inconclusive: 25.1 µM [inhibitor, full curve] |
| NS(=O)(=O)c1ccc(CCNC(=O)COC(=O)Cc2ccc([N+](=O)[O-])cc2)cc1 | inactive |
| CN(C)Cc1c(O)c(Cl)cc2c3c(c(=O)oc12)CCCC3 | inconclusive: 12.6 µM [inhibitor, partial curve] |

| Compound | Potency |
| --- | --- |
| O=C(c1ccc(-c2nnc(Nc3cccc(Cl)c3)c3ccccc23)cc1)N1C[C@H]2C[C@H](C1)c1cccc(=O)n1C2 | inconclusive: 15.8 µM [inhibitor, full curve] |
| CCOc1cc(C2NC(=O)c3c(sc4c3CCN(C)C4)N2)ccc1OC(=O)c1ccccc1Cl (stereo not drawn) | inconclusive: 79.4 µM [inhibitor, partial curve, poor fit] |
| Nc1ccc(C(=O)N2CCN(S(=O)(=O)c3ccc(Cl)s3)CC2)cc1[N+](=O)[O-] | inconclusive: 89.1 µM [inhibitor, partial curve, poor fit] |
| COc1ccc(S(=O)(=O)N2CCC(C(=O)O)(c3ccccc3)CC2)cc1 | inactive |
| O=C(CSc1nc2ccccc2o1)N1CCOCC1 | inactive |
| CCN(CC)CCCC(C)NC(=O)c1ccc(C(F)(F)F)cc1 (stereo not drawn) | inconclusive: 11.2 µM [inhibitor, partial curve, poor fit] |
| Cc1ccc(CNC(=O)Nc2cn(CC(C)C)c(=O)c3ccccc23)cc1 | inconclusive: 31.6 µM [inhibitor, full curve, poor fit] |
| CCCCN1C(=O)/C(=C(/C#N)C(=O)N2CCCC2)c2ccccc21 | inconclusive: 3.16 µM [inhibitor, full curve] |
| N#C/C(=N\Nc1ccc([N+](=O)[O-])cc1)C(N)=S | inconclusive: 35.5 µM [inhibitor, single point] |
| O=C(O)CSCc1cnn(-c2ccccc2)c1-n1cccc1 | inconclusive: 39.8 µM [inhibitor, single point] |
| Cc1ccc(Sc2ncccc2N)cc1 | inconclusive: 10 µM [inhibitor, full curve, poor fit] |
| O=C1/C(=C\c2ccc(O)cc2)SC(=S)N1c1cccnc1 | inconclusive: 15.8 µM [inhibitor, full curve, poor fit] |
| O=Cc1cccc(OC(=O)/C=C/c2ccco2)c1 | inconclusive: 8.91 µM [inhibitor, full curve, poor fit] |
| CCCCCOc1ccc(NC(=O)Cc2csc(C)n2)cc1 | inactive |
| O=C(NCCCN1CCN(c2ccccc2F)CC1)c1cc2c(Cl)nc3ccccc3c2s1 | inactive |
| Clc1ccc2nsnc2c1NC1=NCCN1 | inconclusive: 31.6 µM [inhibitor, single point] |
| Cc1ccc(NC(=O)C2CC(=O)n3c(nc4ccccc43)N2)cc1 (stereo not drawn) | inconclusive: 89.1 µM [inhibitor, single point] |
| COC(=O)c1cc(C(=O)OC)cc(-n2c(C)cc(C(=O)COC(=O)CNS(=O)(=O)c3ccc(C)cc3)c2C)c1 | inconclusive: 31.6 µM [inhibitor, partial curve, poor fit] |
| CCC(=O)NNC(=O)CSc1nnc(-c2ccccc2)c(-c2ccccc2)n1 | inactive |
| N#Cc1ccccc1OCC(=O)Nc1ccc(S(=O)(=O)N2CCOCC2)cc1 | inactive |
| COc1ccc(NC(=O)c2ccc(CNc3c(N4CCCC4)c(=O)c3=O)cc2)cc1Cl | inconclusive: 89.1 µM [inhibitor, single point] |

Grouped by structure: the compounds so far containing an NH in an aromatic ring (2)

| Compound | Potency |
| --- | --- |
| N#Cc1c(N)[nH]c(=S)c(C#N)c1-c1ccccc1 | inconclusive: 15.8 µM [inhibitor, single point] |
| Cc1ccccc1Nc1cc2ccccc2c(=O)[nH]1 | inconclusive: 35.5 µM [inhibitor, partial curve, poor fit] |

(further entries)

| Compound | Potency |
| --- | --- |
| c1ccc(CNc2c3c(nc4ncnn24)CCCC3)nc1 | inconclusive: 35.5 µM [inhibitor, single point] |
| N#Cc1ccc(-c2ccc(F)cc2)nc1SCC(=O)Nc1sc2c(c1C#N)CCC2 | inconclusive: 44.7 µM [inhibitor, partial curve] |
| Cc1ccc(-c2cc(=O)c3ccc(Cl)cc3[nH]2)cc1 | inconclusive: 70.8 µM [inhibitor, partial curve] |
| CC(=O)Oc1ccc(N2C(=O)c3cccc4c([N+](=O)[O-])ccc(c34)C2=O)cc1 | inconclusive: 79.4 µM [inhibitor, single point] |
| Cc1ccc(NC(=O)C(c2ccc(Cl)cc2)N2CCOCC2)cc1 (stereo not drawn) | inactive |
| CCOc1ccc(NC(=O)N(Cc2c[nH]c3ccccc23)C2CCCCCC2)cc1 | inactive |
| Cn1c(=S)c2[nH]c(SCCN3CCCC3)nc2n(C)c1=O | inconclusive: 15.8 µM [inhibitor, partial curve, poor fit] |
| Cc1nnc(SCC(=O)NC2CCCCC2)s1 | inconclusive: 100 µM [inhibitor, partial curve, poor fit] |
| CN1c2ccccc2C(O)=C(C(=S)Nc2ccc(Cl)cc2)S1(=O)=O | inconclusive: 25.1 µM [inhibitor, partial curve, poor fit] |
| Cn1c(NC(=O)c2ccc(F)cc2)c(-c2cccs2)c(=O)c2ccccc21 | inconclusive: 31.6 µM [inhibitor, single point] |
| CC(C)(C)C(=O)NC(=S)Nc1sc2c(c1C#N)CCCCC2 | inconclusive: 22.4 µM [inhibitor, partial curve] |
| Cc1ccc(SCC(=O)Nc2cccc(NC(=O)c3ccco3)c2)cc1 | inconclusive: 70.8 µM [inhibitor, partial curve, poor fit] |
| CCOC(=O)[C@H]1[C@H]2COc3ccc(Br)cc3[C@@H]2N2C(=O)c3cc(F)c(F)cc3NC(=O)[C@@]12C | inconclusive: 39.8 µM [inhibitor, single point] |
| Cc1ccc(Nc2nc3ccc(Cl)cc3n3cnnc23)cc1F | inactive |
| COC(=O)C(C)Oc1ccc2c(-c3cccc([N+](=O)[O-])c3)cc(=O)oc2c1 (stereo not drawn) | inconclusive: 89.1 µM [inhibitor, single point] |
| CN1C(=O)C2(c3ccccc31)N(C)CC(c1ccccn1)C21SC(=S)N(Cc2ccco2)C1=O (stereo not drawn) | inconclusive: 12.6 µM [inhibitor, partial curve, poor fit] |
| Cc1ccc(-n2nc3c(N4CCC(C(=O)NC(C)c5ccccc5)CC4)nnc(C)c3c2C)cc1 (stereo not drawn) | inconclusive: 89.1 µM [inhibitor, single point] |
| CCOc1ccc(Nc2cc(C)nc3nc(Cc4ccc(Cl)cc4)nn23)cc1 | active: 79.4 µM |
| Cc1nc(COc2cccc(Cl)c2)sc1C(=O)/C=C/N(C)C | inconclusive: 28.2 µM [inhibitor, partial curve, poor fit] |
| COc1ccc(S(=O)(=O)c2c(O)c3ccc(C(=O)NCc4ccccc4)cc3[nH]c2=O)cc1 | inconclusive: 100 µM [inhibitor, single point] |
| COc1ccc(OC)c(-c2csc(NC(=O)COC(=O)c3ccc(NC(=O)CC#N)cc3)n2)c1 | active: 28.2 µM |
